The target in the test is C-terminal LRR domain of TOL-1, purified (Caenorhabditis elegans). The experiment in a line: SEC.

Results are given in words; binding and its absence hold for the method and conditions named. Binding can be weak; no strength is given.

B1: LAT-1 Lec domain (residues T32-P136), purified (domain or fragment, UniProt G5EDW2 32-136)
chain: TTDESGTISHTICDGEAAELSCPAGKVISIVLGNYGRFSVAVCLPDNDIVPSNINCQNHKTKSILEKKCNGDSMCYFTVDKKTFTEDPCPNTPKYLEVKYNCVVP
Take B1: the binding result is “binds”.

Source of the values: publication doi:10.1101/2023.05.04.539414.
